Measured values published in PubChem BioAssay AID1508600 (Functional Genomics Laboratory (NCATS/FGL), 2020).
Hit rate of the full screen: of about 53,000 sequences, about 3,700 (7%) were called active.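 How the source made its calls: active means gene knockdowns whose robust z-score for IL-1 alpha signal is at least 2 or at most -2, so actives lie on both sides; inactive means the rest.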 The list shows a part of the results.

Assay: Components of the Cytosolic LPS Sensing Pathway: Gene Identification via Genome-wide siRNA Screen;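 further: robust z of the log signal after scaling to non-targeting control siRNA wells of the plate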
Conditions: RAW264.7 macrophages, IL-1a HTRF, actives lie on both sides, screened at 100 nM (by protocol), cells primed 5 h with Pam3CSK4 first
In short: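 Cells (RAW264.7, 1×10^4 per well) were transfected with siRNA at 100 nM and cultured 48h at 37 degrees C. Pam3CSK4 was added for 5 hours; LipidA transfection followed for 24 hour. IL-1a was then measured by HTRF.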

| Sequence | z-score |
| --- | --- |
| GGUGGACUCUGUUUAAAAATT against Mtnr1a | inactive: 0.971 |
| GCAACUUCUAAAGGUCCUATT against Oaf | inactive: -0.561 |
| GCUUCAACAGUAAUAAUCGTT against Adamtsl1 | active: 2.75 |
| GAACUGAAGAAGCAGAUUGTT against Isg15 | inactive: 0.601 |
| GGGCUAUGUUCGAAGUAAATT against Kbtbd3 | inactive: -0.848 |
| GUAAUCACCUUAAAGAUGUTT against Cebpb | inactive: 1.32 |
| GCCCUAAUUAGCUUUUUGUTT against Gpr68 | inactive: 0.719 |
| GGGUCAUCCAAUAUUUUGCTT against Myh7 | inactive: -0.807 |
| GGGCAAGAAACCUCUUAACTT against Synpo2 | inactive: 1.57 |
| GGAAAUGAGACGAAGGAGGTT against Kpna6 | inactive: -0.642 |
| CCCAGAUACGCUAUUCGGUTT against Pcdhga12 | inactive: -0.566 |
| GCGCGAUAGAUUUUGUUUATT against Ier5l | inactive: -0.427 |
| GGCUGUUUGUGGUAUAGGUTT against Lrrc3 | inactive: -1.05 |
| GGUAUGUAACGGUAUUUAATT against Gja1 | active: 2.66 |
| GGGAAUCGGCCUGAAGAAATT against Arl6ip5 | inactive: -0.404 |
| GCUUUACCUCCUAUUAAUATT against Rgs9bp | inactive: -0.91 |
| GCUGUCAAACUGCCUCAACTT against Prss58 | inactive: -0.798 |
| GGUUCUCCAAGGAAAGAGGTT against 2310002L09Rik | active: 2.8 |
| CCCAAAUCGUAGCUGAUGATT against Cadps | inactive: 0.449 |
| GCAGUUCCCAUAGUUUUCUTT against Il1r2 | active: 6.07 |
| GGAUCUGAUCCAGACUUCUTT against Ndrg1 | active: 2.05 |
| GGUGAAGACAGAAUUUCCGTT against 1700128F08Rik | inactive: -1.01 |

| Sequence | z-score |
| --- | --- |
| CCCAGUGAUUAAGGCUUUCTT against Slc25a38 | inactive: 1.27 |
| GGAGAAAAAGUCUGAAAGATT against Helq | inactive: -0.265 |
| GGAGGUAGAAUGUUAUGUGTT against Gjd2 | inactive: 0.0864 |
| CCAGUACAGAUGUGUUAAATT against N4bp2l2 | inactive: 1.68 |
| GGUGUUUAUCGACAGGUACTT against Myo15 | inactive: 0.126 |
| GGGAACUCCUUAUGAAUGGTT against Stau2 | inactive: -0.597 |
| GGUGCAGUUGAACUUCUACTT against Dnajc1 | active: 2.26 |
| GCAGUUGUCAUGCUAAACCTT against Ptpn2 | active: 2.89 |
| GCUACACUAUUCUAGCAAATT against Cryzl1 | inactive: 0.339 |
| CCUUAUUAGUGGAUCUAAATT against Steap3 | inactive: 0.835 |
| GGCCAGAAGAUUCCUAAAGTT against Gulp1 | active: 3.38 |
| GGAAGACAUCUGAAACGAUTT against Eef1akmt1 | inactive: 0.769 |
| GGCUGCACCUGAAUUCCAATT against Lrrn1 | inactive: -0.342 |
| GGAGAAAAGUACCAAGAUGTT against Ifi27l2b | inactive: -1.15 |
| GCCGAUCAAGACAACUUCATT against Spaca7 | inactive: 0.0187 |
| GGCCUUGGAAAUGAUAAGUTT against Scrn3 | inactive: -1.73 |
| GGCCUGUGCACACUUCUGUTT against Edn3 | inactive: 0.235 |
| CCUUGUACCCAGUAAAGUCTT against Mab21l4 | inactive: 0.586 |
| CUACGUGCUAGCUCAAGGATT against Mmp28 | inactive: -1.1 |
| GGCCAAAGAAGAAAUCCAATT against Pop4 | inactive: 1 |
| GGGUUUCAUUAAAUUUCCUTT against Cyp2g1 | active: -2.06 |
| GUCAUCAAUCAAGUCUUGATT against Olfr1408 | inactive: -0.0822 |

| Sequence | z-score |
| --- | --- |
| GGCAAAUACAGGCUAAAGUTT against Caps2 | inactive: 1.06 |
| CCAAUGGAACAUUAAGUGATT against Psma1 | inactive: -0.485 |
| GGUGCUUUCUGCUUACUGATT against Ephb2 | inactive: -0.787 |
| GGAGCCAACAACAACUCCUTT against Rbfox2 | inactive: 0.0956 |
| CGUGUAUUUUACAAAGAGUTT against Gm11541 | inactive: 0.348 |
| CCUGGCAUUUGGAGCAUUCTT against Olfr1154 | inactive: 0.234 |
| GCAUUACAAAUUGUCUACATT against Ugdh | inactive: -0.175 |
| GCGGAAGUAUUACCAAGACTT against Fam166c | inactive: -0.908 |
| GCUAUUCCGGAAUAAGAGUTT against Nell1 | inactive: 0.0447 |
| GGAAGUGUUUGUUCUAAUCTT against Prr18 | inactive: 0.834 |
| GCAACUCAACCUCAACCAUTT against Lrrc8e | inactive: -0.597 |
| GGAAGGAAAACCUUUCAACTT against Cyp2j6 | inactive: 0.975 |
| GGAAUAUGCCAAAAUGAAATT against Nuf2 | inactive: 0.139 |
| GGCCUUGGUGAAAAUGCAGTT against Plaat1 | active: -2.07 |
| GGCUACAGGGAACAUAGAGTT against Pdzk1ip1 | inactive: 1.88 |
| CCGAAAAUGGUAAAUAACUTT against Rnf17 | inactive: 0.111 |
| CCAGUGAUAACUCUCUUGUTT against A830039N20Rik | inactive: 1.23 |
| GGUGCUUGUUUAAAUGGUUTT against Slc19a1 | inactive: -0.569 |
| CCAAGGACACUAUACAAAUTT against Fank1 | inactive: 0.957 |
| GCACAGUACUAUCUCGGCATT against Ttc4 | inactive: 0.386 |
| GGAAAGAGUUCAACAGGGATT against Gimap4 | inactive: -0.853 |
| GCUUAGUGACCAUCUCCGUTT against Epop | inactive: 0.236 |

| Sequence | z-score |
| --- | --- |
| GGUCUCUUGGUGAUUUCCATT against Phyhipl | inactive: 0.482 |
| GCCAGAGUACCACAUUAGUTT against Pcdhga4 | inactive: 0.921 |
| GGAAAAGAAACACAUCUGGTT against Col2a1 | inactive: -0.68 |
| GGAAAAGAAAAUCGAGACCTT against Ubap2l | inactive: 0.776 |
| GGAGCUGUUUGACAGUUUUTT against Nin | inactive: 1.95 |
| GGCAGUUCUUUGUAUUAAATT against Dhcr7 | inactive: 0.223 |
| GCCUCCUAGUAUUUACAUGTT against Ube2j2 | inactive: 0.8 |
| GGCAGAAUGUUGUAAAUGATT against Man2b1 | inactive: -0.0977 |
| CGAUGACUGUAAAAAGUCUTT against Plcb1 | inactive: 0.541 |
| GGACCAUGUGACAAAGCCUTT against Fam131b | active: 2.16 |
| CGAUGACCUUGAAUAAAAATT against Vim | inactive: -0.706 |
| CCUCAAGGAACUGAAUGCCTT against Olfr1320 | inactive: 0.0261 |
| CCUAGUCACAAAUUCAGGATT against Skida1 | inactive: -0.0157 |
| GGGCAAAAUGUGGAGAUGUTT against Vstm2a | inactive: -0.116 |
| GCUCUGCUGUGUUAUAUGGTT against C330011M18Rik | inactive: 0.144 |
| CGGGACUUUAGAUUAUGAATT against Pcdha11 | inactive: -0.284 |
| CGGGAAUCUAAAUAUGGUGTT against Oat | inactive: -1.47 |
| GGAGCAUGAGGACAUCAGATT against Tnp1 | inactive: -0.444 |
| CGUGGUGCAGAAUUUUUAUTT against Cldn14 | inactive: 1.13 |
| GGAAAAGGAGGAGGAAGGCTT against Lpin1 | inactive: -1.84 |
| GGAGAUCUUGAGAUUGUAUTT against Ticrr | inactive: 0.424 |
| GGAUGUAGAACUCUUAGCUTT against Wdr25 | inactive: 1.23 |

Fetched one by one from above, 4 records:

| Sequence | z-score |
| --- | --- |
| GGACCAUGUGACAAAGCCUTT against Fam131b | active: 2.16 |
| GCCAGAGUACCACAUUAGUTT against Pcdhga4 | inactive: 0.921 |
| GGAAAAGGAGGAGGAAGGCTT against Lpin1 | inactive: -1.84 |
| GGUCUCUUGGUGAUUUCCATT against Phyhipl | inactive: 0.482 |

Following part

| Sequence | z-score |
| --- | --- |
| CGAGCAUUCACCGUACGUATT against Id4 | inactive: 0.0542 |
| GGUUUUGGAAAAUUUGCUATT against Hal | inactive: 0.349 |
| GGUAGAAAAUUGUCUUUUCTT against Zcchc7 | inactive: 1.58 |
| GCACUAUAAUUCUCAUUACTT against Omd | inactive: -0.123 |
| GGAUCAUUCCAUUUCUGCCTT against Sh3pxd2b | inactive: 0.505 |
| GCCGAGUUGAAGUGAAGAATT against Pold2 | inactive: -0.653 |
| CCUUGUUCGUCGCUGAGUUTT against Acer3 | inactive: 1.08 |
| GCAUUAUGACUCUAAUAGCTT against Olfr60 | inactive: -0.919 |
| GCAACAAUGUAUGCGUAUATT against Mrpl27 | inactive: 1.96 |
| GGCAGUUUGACAACUUUAATT against Fibp | inactive: -0.653 |
| GGAACAAGCCAGGCACAUATT against Prl2c5 | inactive: 0.389 |
| GGGCAAGAAUAAAUGAAAGTT against Hes1 | inactive: 1.63 |
| GGCCAUCAGAUUGGUGAAATT against Ccl17 | inactive: -0.0075 |
| GGACCCAGCAUUGGACUUGTT against Zranb1 | inactive: -1.36 |
| GGAGACAGAGGAAAUUCAGTT against Apoa5 | inactive: 1.04 |
| GCCCUCAUCAAUUCAACCCTT against Cyp2ab1 | inactive: -1.55 |
| GGACUCAAGCAAACUCCAGTT against Stx12 | inactive: -1.05 |
| GAGAUGCAUUGUUUCAGGUTT against Vmn1r208 | inactive: 0.341 |
| GCAAAUCCCAGCUCAAUGUTT against Zfp810 | inactive: -1.65 |

Exported bar-delimited: entries from further up.
Sequence | z-score
CCUGGCAUUUGGAGCAUUCTT against Olfr1154 | inactive: 0.234
GCAUUACAAAUUGUCUACATT against Ugdh | inactive: -0.175
GCGGAAGUAUUACCAAGACTT against Fam166c | inactive: -0.908
